At least one result comes from cells or an extract, where the contact may be indirect. For part of these data: Negatives hold for the conditions tested. For part of these data: For at least one entry, the source does not settle the construct or the ends of the probe. For part of these data: At least one verdict rests on a figure or table, not on a statement of the authors. For part of these data: Weaker means in comparison with the reference protein, sequence or condition of that experiment.

Sequences of proteins named here, by UniProt entry; tags and fusion partners are left off.
UniProt P10074, whole entry, stated change not applied: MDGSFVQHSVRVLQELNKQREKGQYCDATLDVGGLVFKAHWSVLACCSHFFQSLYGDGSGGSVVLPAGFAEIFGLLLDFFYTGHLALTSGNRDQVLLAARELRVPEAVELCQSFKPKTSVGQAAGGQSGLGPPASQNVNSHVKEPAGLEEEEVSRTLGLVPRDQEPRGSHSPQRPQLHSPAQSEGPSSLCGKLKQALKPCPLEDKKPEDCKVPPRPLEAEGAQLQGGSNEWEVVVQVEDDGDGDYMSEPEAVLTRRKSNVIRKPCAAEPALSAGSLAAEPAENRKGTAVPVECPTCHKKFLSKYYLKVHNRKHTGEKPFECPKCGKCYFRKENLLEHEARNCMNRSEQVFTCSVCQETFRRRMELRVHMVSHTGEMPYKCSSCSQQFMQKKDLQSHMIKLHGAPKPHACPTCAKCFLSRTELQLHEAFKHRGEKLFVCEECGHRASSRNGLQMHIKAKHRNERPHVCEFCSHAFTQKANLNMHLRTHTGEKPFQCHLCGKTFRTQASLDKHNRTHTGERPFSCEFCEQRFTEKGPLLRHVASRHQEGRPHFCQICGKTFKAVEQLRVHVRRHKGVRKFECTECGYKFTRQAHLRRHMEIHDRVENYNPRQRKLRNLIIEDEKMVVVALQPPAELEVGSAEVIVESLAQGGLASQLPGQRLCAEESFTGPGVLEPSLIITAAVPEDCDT
UniProt P10074, whole entry R611A/R614A: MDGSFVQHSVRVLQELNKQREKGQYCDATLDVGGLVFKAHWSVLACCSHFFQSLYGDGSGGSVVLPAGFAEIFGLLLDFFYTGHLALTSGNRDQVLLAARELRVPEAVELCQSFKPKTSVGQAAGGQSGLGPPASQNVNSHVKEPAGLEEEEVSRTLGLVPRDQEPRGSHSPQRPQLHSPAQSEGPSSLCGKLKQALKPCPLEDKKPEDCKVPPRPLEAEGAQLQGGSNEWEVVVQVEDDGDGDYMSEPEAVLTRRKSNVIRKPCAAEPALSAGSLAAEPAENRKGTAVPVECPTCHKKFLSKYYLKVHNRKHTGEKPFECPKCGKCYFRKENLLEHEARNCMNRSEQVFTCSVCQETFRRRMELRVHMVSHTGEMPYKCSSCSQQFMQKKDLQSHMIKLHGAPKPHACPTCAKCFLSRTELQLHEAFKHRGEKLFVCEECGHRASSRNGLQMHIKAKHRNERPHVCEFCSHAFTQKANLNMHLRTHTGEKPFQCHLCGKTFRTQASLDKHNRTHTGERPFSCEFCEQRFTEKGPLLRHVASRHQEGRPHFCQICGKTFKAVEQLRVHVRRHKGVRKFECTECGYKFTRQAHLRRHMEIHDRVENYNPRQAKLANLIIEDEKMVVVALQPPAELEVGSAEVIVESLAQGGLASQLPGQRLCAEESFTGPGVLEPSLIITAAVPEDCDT
UniProt P10074, whole entry R611A: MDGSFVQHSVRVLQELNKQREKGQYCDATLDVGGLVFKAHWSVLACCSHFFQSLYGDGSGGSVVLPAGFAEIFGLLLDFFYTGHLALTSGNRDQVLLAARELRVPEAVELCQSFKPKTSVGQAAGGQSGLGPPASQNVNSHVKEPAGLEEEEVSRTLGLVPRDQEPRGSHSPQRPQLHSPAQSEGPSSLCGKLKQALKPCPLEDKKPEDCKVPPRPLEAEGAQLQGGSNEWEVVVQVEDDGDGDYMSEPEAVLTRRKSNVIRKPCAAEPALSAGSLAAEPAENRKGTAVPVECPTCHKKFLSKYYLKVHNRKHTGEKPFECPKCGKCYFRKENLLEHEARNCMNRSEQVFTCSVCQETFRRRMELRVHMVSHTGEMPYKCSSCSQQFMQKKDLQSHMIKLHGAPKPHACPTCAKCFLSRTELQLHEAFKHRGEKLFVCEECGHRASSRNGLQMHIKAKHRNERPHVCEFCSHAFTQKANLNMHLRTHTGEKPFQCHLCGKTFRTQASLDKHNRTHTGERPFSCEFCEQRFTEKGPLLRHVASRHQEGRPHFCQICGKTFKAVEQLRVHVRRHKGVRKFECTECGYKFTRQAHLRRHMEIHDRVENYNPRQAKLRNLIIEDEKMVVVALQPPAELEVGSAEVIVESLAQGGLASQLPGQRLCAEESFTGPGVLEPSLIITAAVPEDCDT

Holding throughout (experiment): DNA pull-down/immunoblot
On the technique in general: A western blot detects proteins with antibodies after separation by electrophoresis.

Series [1] deals with ZBTB48 endogenous (U2OS nuclear extract) (Homo sapiens (U2OS cells)) (UniProt P10074). The note with it: Pull-down: 150 mM NaCl, 50 mM Tris-HCl pH 7.5, 5 mM MgCl2, 0.5% Igepal CA-630, 1 mM DTT, 20 ug salmon sperm DNA, 4 C 2 h; protein in an extract; label: desthiobiotin-dATP.
Series [2] addresses FLAG-ZBTB48 ZnF1 mutant (UniProt P10074). The note with it: Pull-down: 150 mM NaCl, 50 mM Tris-HCl pH 7.5, 5 mM MgCl2, 0.5% Igepal CA-630, 1 mM DTT, 20 ug salmon sperm DNA, 4 C 2 h; protein in a lysate after overexpression; residues 1-688; protein details: FLAG; label: desthiobiotin-dATP.
For series [3], the target named is FLAG-ZBTB48 delta ZnF1-9 + ZnF11 mutant (UniProt P10074). The note with it: Pull-down: 150 mM NaCl, 50 mM Tris-HCl pH 7.5, 5 mM MgCl2, 0.5% Igepal CA-630, 1 mM DTT, 20 ug salmon sperm DNA, 4 C 2 h; protein in a lysate after overexpression; protein details: FLAG; label: desthiobiotin-dATP.
For series [4], the target named is FLAG-ZBTB48 ZnF6 mutant (UniProt P10074). The note with it: Pull-down: 150 mM NaCl, 50 mM Tris-HCl pH 7.5, 5 mM MgCl2, 0.5% Igepal CA-630, 1 mM DTT, 20 ug salmon sperm DNA, 4 C 2 h; protein in a lysate after overexpression; residues 1-688; protein details: FLAG; label: desthiobiotin-dATP.
Series [5] has as its target FLAG-ZBTB48 delta ZnF1-9 + ZnF10 mutant (UniProt P10074). The note with it: Pull-down: 150 mM NaCl, 50 mM Tris-HCl pH 7.5, 5 mM MgCl2, 0.5% Igepal CA-630, 1 mM DTT, 20 ug salmon sperm DNA, 4 C 2 h; protein in a lysate after overexpression; protein details: FLAG; label: desthiobiotin-dATP.
The target of series [6] is FLAG-ZBTB48 R611A/R614A (UniProt P10074). The following applies: Pull-down: 150 mM NaCl, 50 mM Tris-HCl pH 7.5, 5 mM MgCl2, 0.5% Igepal CA-630, 1 mM DTT, 20 ug salmon sperm DNA, 4 C 2 h; protein in a lysate after overexpression; residues 1-688; protein details: FLAG; label: desthiobiotin-dATP.
Series [7] concerns the target FLAG-ZBTB48 ZnF3 mutant (UniProt P10074). The note with it: Pull-down: 150 mM NaCl, 50 mM Tris-HCl pH 7.5, 5 mM MgCl2, 0.5% Igepal CA-630, 1 mM DTT, 20 ug salmon sperm DNA, 4 C 2 h; protein in a lysate after overexpression; residues 1-688; protein details: FLAG; label: desthiobiotin-dATP.
The target in series [8] is FLAG-ZBTB48 ZnF5 mutant (UniProt P10074). The note with it: Pull-down: 150 mM NaCl, 50 mM Tris-HCl pH 7.5, 5 mM MgCl2, 0.5% Igepal CA-630, 1 mM DTT, 20 ug salmon sperm DNA, 4 C 2 h; protein in a lysate after overexpression; residues 1-688; protein details: FLAG; label: desthiobiotin-dATP.
The target of series [9] is FLAG-ZBTB48 ZnF11 mutant (UniProt P10074). The note with it: Pull-down: 150 mM NaCl, 50 mM Tris-HCl pH 7.5, 5 mM MgCl2, 0.5% Igepal CA-630, 1 mM DTT, 20 ug salmon sperm DNA, 4 C 2 h; protein in a lysate after overexpression; residues 1-688; protein details: FLAG; label: desthiobiotin-dATP.
The target of series [10] is FLAG-ZBTB48 ZnF9 mutant (UniProt P10074). The following applies: Pull-down: 150 mM NaCl, 50 mM Tris-HCl pH 7.5, 5 mM MgCl2, 0.5% Igepal CA-630, 1 mM DTT, 20 ug salmon sperm DNA, 4 C 2 h; protein in a lysate after overexpression; residues 1-688; protein details: FLAG; label: desthiobiotin-dATP.
For series [11], the target named is FLAG-ZBTB48 ZnF4 mutant (UniProt P10074). The note with it: Pull-down: 150 mM NaCl, 50 mM Tris-HCl pH 7.5, 5 mM MgCl2, 0.5% Igepal CA-630, 1 mM DTT, 20 ug salmon sperm DNA, 4 C 2 h; protein in a lysate after overexpression; residues 1-688; protein details: FLAG; label: desthiobiotin-dATP.
Series [12] addresses ZBTB48 endogenous (SUDHL4 nuclear extract) (Homo sapiens (SUDHL4 cells)) (UniProt P10074). The note with it: Pull-down: 150 mM NaCl, 50 mM Tris-HCl pH 7.5, 5 mM MgCl2, 0.5% Igepal CA-630, 1 mM DTT, 20 ug salmon sperm DNA, 4 C 2 h; protein in an extract; label: desthiobiotin-dATP.
Series [13] has as its target FLAG-ZBTB48 ZnF10 mutant (UniProt P10074). The following applies: Pull-down: 150 mM NaCl, 50 mM Tris-HCl pH 7.5, 5 mM MgCl2, 0.5% Igepal CA-630, 1 mM DTT, 20 ug salmon sperm DNA, 4 C 2 h; protein in a lysate after overexpression; residues 1-688; protein details: FLAG; label: desthiobiotin-dATP.
Series [14] has as its target FLAG-ZBTB48 ZnF7 mutant (UniProt P10074). The note with it: Pull-down: 150 mM NaCl, 50 mM Tris-HCl pH 7.5, 5 mM MgCl2, 0.5% Igepal CA-630, 1 mM DTT, 20 ug salmon sperm DNA, 4 C 2 h; protein in a lysate after overexpression; residues 1-688; protein details: FLAG; label: desthiobiotin-dATP.
Series [15] deals with FLAG-ZBTB48 ZnF8 mutant (UniProt P10074). The following applies: Pull-down: 150 mM NaCl, 50 mM Tris-HCl pH 7.5, 5 mM MgCl2, 0.5% Igepal CA-630, 1 mM DTT, 20 ug salmon sperm DNA, 4 C 2 h; protein in a lysate after overexpression; residues 1-688; protein details: FLAG; label: desthiobiotin-dATP.
Series [16] deals with FLAG-ZBTB48 R611A (UniProt P10074). The note with it: Pull-down: 150 mM NaCl, 50 mM Tris-HCl pH 7.5, 5 mM MgCl2, 0.5% Igepal CA-630, 1 mM DTT, 20 ug salmon sperm DNA, 4 C 2 h; protein in a lysate after overexpression; residues 1-688; protein details: FLAG; label: desthiobiotin-dATP.
In series [17] the target is FLAG-ZBTB48 WT (UniProt P10074). The following applies: Pull-down: 150 mM NaCl, 50 mM Tris-HCl pH 7.5, 5 mM MgCl2, 0.5% Igepal CA-630, 1 mM DTT, 20 ug salmon sperm DNA, 4 C 2 h; protein in a lysate after overexpression; residues 1-688; protein details: FLAG; label: desthiobiotin-dATP.

As to “TTAGAGGGTGTTCAGAAACAGAAATCTGACCGCTTGGG / AACCCAAGCGGTCAGATTTCTGTTTCTGAACACCCTCT [CIITA pIII probe c]”, in [1], the binding result is on record as “no binding”.
For the sequence “GTCCACAGTAAGGAAGTGAAATTAATTTCAGAGGTGTGGGGAGGGCTTAAGGGAGTGTGG / ACCCACACTCCCTTAAGCCCTCCCCACACCTCTGAAATTAATTTCACTTCCTTACTGTGG [CIITA pIII probe 2]”, in series [1], the binding result is given as “binds”.
On the same count and under the same terms, for “GTGTGGTAAAATTAGGTGTGGTAAAATTAGGTGTGGTAAAATTAGGTGTGGTAAAATTAG / ACCTAATTTTACCACACCTAATTTTACCACACCTAATTTTACCACACCTAATTTTACCAC [CIITA pIII probe b.2]” the value was “no binding”.
With “CTGGGCATCCGAAGGCATCCTTGGGGAAGCTGAGGGCACGAGGAGGGGCTGCCAGACTCC / AGGGAGTCTGGCAGCCCCTCCTCGTGCCCTCAGCTTCCCCAAGGATGCCTTCGGATGCCC [CIITA pIII probe 7]”, the binding result in [1] is given as “no binding”.
On to “GTTTTTTTGATGATCGTTTTTTTGATGATCGTTTTTTTGATGATCGTTTTTTTGATGATC / ACGATCATCAAAAAAACGATCATCAAAAAAACGATCATCAAAAAAACGATCATCAAAAAA [CIITA pIII probe e.1 (listed as f.1 in Dataset EV5)]”, for which the binding result in series [1] is listed as “no binding”.
Turning to “CTTAAGGGAGTGTGGTAAAATTAGAGGGTGCTTAAGGGAGTGTGGTAAAATTAGAGGGTG / AGCACCCTCTAATTTTACCACACTCCCTTAAGCACCCTCTAATTTTACCACACTCCCTTA [CIITA pIII probe b]”, the binding result in series [1] was “binds”.
Consider “TTGTTTCTTTGCATGTTGGCTTAGCTTGGCTTGTTTCTTTGCATGTTGGCTTAGCTTGGC / AAGCCAAGCTAAGCCAACATGCAAAGAAACAAGCCAAGCTAAGCCAACATGCAAAGAAAC [CIITA pIII probe f (listed as g in Dataset EV5)]”, for which, in [1], the binding result is “no binding”.
Take “GTTTTTTTGATGATCCCTCACTTGTTTCTTGTTTTTTTGATGATCCCTCACTTGTTTCTT / ACAAGAAACAAGTGAGGGATCATCAAAAAAACAAGAAACAAGTGAGGGATCATCAAAAAA [CIITA pIII probe e (listed as f in Dataset EV5)]”: in series [1], the binding result is given as “binds”.
Same read-out and setting: for “CTCACTTGTTTCTTTGCATGTTGGCTTAGCTTGGCGGGCTCCCAACTGGTGACTGGTTAG / AGCTAACCAGTCACCAGTTGGGAGCCCGCCAAGCTAAGCCAACATGCAAAGAAACAAGTG [CIITA pIII probe 5]” the value was “no binding”; for “CTGACCGCTTGGGGCCACCTTGCAGGGAGAGTTTTTTTGATGATCCCTCACTTGTTTCTT / AGAAGAAACAAGTGAGGGATCATCAAAAAAACTCTCCCTGCAAGGTGGCCCCAAGCGGTC [CIITA pIII probe 4]”, “binds”.
“TTGATGATCCCTCACTTGATGATCCCTCACTTGATGATCCCTCACTTGATGATCCCTCAC / AAGTGAGGGATCATCAAGTGAGGGATCATCAAGTGAGGGATCATCAAGTGAGGGATCATC [CIITA pIII probe e.2 (ARE-2; listed as f.2 in Dataset EV5)]”: the binding result is reported as “binds” in series [2]; “no binding” in series [3]; “binds” in series [4]; “binds” in series [1]; “no binding” in series [5]; “no binding” in [6]. Further, the binding result in series [7] is recorded as “binds”; in [8] it was “binds”; in series [9], “no binding”; in [10] it was “binds”; in series [11] it was “binds”; in series [12] it was “binds”. The binding result in series [13] is listed as “no binding”; in series [14] it was “binds”; in [15] it was “binds”; in series [16], “binds more weakly”; in series [17], “binds”.

For the origin of these results see article PMC11649694.
